Measured values taken from US20240002463A1, “CHEMOGENETIC RECEPTORS AND METHODS OF MAKING AND USING” (Howard Hughes Medical Institute, priority 2022, published 2024).
For at least one compound, name, drawing or mass did not settle the structure.

Test system: hippocampal neurons expressing Gpr40
Assay: patch clamp electrophysiology of hippocampal neurons expressing Gpr40
Assay type: cell-based, rat
Settings: 20 μM; FIG. 12B
Method: For engineered neuromodulation of neurons by fatty acids, a fatty acid […] (Gpr40) was expressed in hippocampal neurons. Neuron firing was increased in response to a fatty acid, palmitate (20 μM), as well as a synthetic Gpr40 agonist, GW9508 (0.2 μM) (FIG. 12A, 12B). For testing, embryonic rat hippocampal neurons are transfected by electroporation with a plasmid expressing GPR40 and an mCherry fluorescent protein. Then cells are plated on poly-D-lysine coated 13 mm dia #1 glass coverslips in the wells of a 24 well plates at 50,000 cells/well. Each well receives 60 μL of cell suspension plus 60 μL of NbActiv4 medium (BrainBits) and are incubated at 37 C in 5% CO2 for 4 hours for initial cell attachment. NbActiv4 media (1 mL) is then added to each well and cultures kept for the duration of the experiment. Weekly medium changes are done by replacing 0.5 mL medium from each well with fresh NbActiv4. Fluorescent cells are recorded by patch clamp electrophysiology while palmitate or GW9508 are perfused over the cells intermittently in a saline extracellular solution.

## CCCCCCCCCCCCCCCC(=O)O [palmitate]
  neuron firing: increased
